Taken from: PubChem BioAssay AID1159578 (Peter MacCallum Cancer Centre, 2015)

Screen: 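Genome-wide hunt for genes controlling movement of lymphatic endothelial cells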 (primary screen)
Cells: human lymphatic endothelial cells
Reagent: siRNA pool against human genes, 40 nM
Time to read-out: 48 h after transfection
Detection: 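Cells stained with dye and imaged after a scratch; covered wound area and nuclei counted, duplicates averaged, migration set against mock wells and turned into a robust z-score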
Direction: migration robust z-score: higher = faster migration into the scratch; nuclei per well: higher = more cells in the well
Rule for the call: 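Pools averaging fewer than 3300 nuclei are never called; remaining pools count as changed when migration robust z lies outside -2 to 2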
Meaning of the calls: active = migration changed; inactive = no migration change, or too few cells
Shown is an unselected part of about 18,000 deposited reagents. In the full data, about 1,030 (5.7%) got an active call. 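Inactive calls also include pools with fewer than 3300 nuclei, whose migration was not assessed.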 Raw values vary from plate to plate and are shown uncorrected. Entries without a mark were called inactive. Further read-outs or replicates are left out here. No sequences are given here.

Depletion of TUB [SID255352998] gave: migration robust z-score -1.85; nuclei per well, duplicate mean 4238.
Silencing of KRTAP11-1 [SID255364957] resulted in: migration robust z-score 1.45; nuclei per well, duplicate mean 8010.
NDST1 [SID255350349] gave migration robust z-score 0.09; nuclei per well, duplicate mean 7198.
After knock-down of TTC21A [SID255363998], the screen gave migration robust z-score 0.5; nuclei per well, duplicate mean 6047.
For DAW1 [SID255363817], the entry reads migration robust z-score -0.24; nuclei per well, duplicate mean 6146.
SPOPL [SID255365050] showed migration robust z-score 0.54; nuclei per well, duplicate mean 5590.
Silencing of ZNF630 [SID255359352] resulted in: migration robust z-score 0.2; nuclei per well, duplicate mean 5256.
CDK7 [SID255348842] scored migration robust z-score -2.54 (active); nuclei per well, duplicate mean 3744.
With knock-down of AMY1C [SID255348301], the screen gave migration robust z-score 0.38; nuclei per well, duplicate mean 5012.
Against VMO1 [SID255364727], the values are migration robust z-score -0.11; nuclei per well, duplicate mean 7512.
TMEM263 [SID255361832] gave migration robust z-score 1.06; nuclei per well, duplicate mean 5104.
POLR1G [SID255355389] scored migration robust z-score -1.28; nuclei per well, duplicate mean 4212.
Against ASTL [SID255365877], the entry reads migration robust z-score -2.05 (active); nuclei per well, duplicate mean 6030.
Depletion of OR7E85BP [SID255366125] came out at: migration robust z-score -0.22; nuclei per well, duplicate mean 5936.
With knock-down of BBS10 [SID255360430] the results were migration robust z-score 0.56; nuclei per well, duplicate mean 6440.
Against ST6GAL2 [SID255361423], the entry reads migration robust z-score 1.12; nuclei per well, duplicate mean 5732.
Silencing of CASKIN1 [SID255359441] gave: migration robust z-score -0.32; nuclei per well, duplicate mean 5779.
With knock-down of ETNPPL [SID255360028], the screen gave migration robust z-score 1.61; nuclei per well, duplicate mean 5213.
With knock-down of HEATR5B [SID255358044], the screen gave migration robust z-score -1.08; nuclei per well, duplicate mean 6712.
Knock-down of KCNJ16 [SID255350620] gave: migration robust z-score 0.57; nuclei per well, duplicate mean 6330.
DTNB [SID255349388] gave migration robust z-score -0.9; nuclei per well, duplicate mean 6238.
Against MAP3K4 [SID255350932], the values are migration robust z-score -0.68; nuclei per well, duplicate mean 5792.
Knock-down of KAAG1 [SID255365286] gave: migration robust z-score -0.26; nuclei per well, duplicate mean 3724.
After knock-down of EFCAB3 [SID255363297] the results were migration robust z-score -0.19; nuclei per well, duplicate mean 6036.
YWHAZ [SID255353169] showed migration robust z-score 0.78; nuclei per well, duplicate mean 6012.
KCNMB4 [SID255357046] gave migration robust z-score 0.7; nuclei per well, duplicate mean 6753.
For SERPINB9 [SID255351567] the deposit lists migration robust z-score -1.01; nuclei per well, duplicate mean 5288.

Entries listed so far with an active call (2):
CDK7 [SID255348842] | migration robust z-score: -2.54 (active); nuclei per well, duplicate mean: 3744
ASTL [SID255365877] | migration robust z-score: -2.05 (active); nuclei per well, duplicate mean: 6030
